These are yes or no findings as the source states them, for the method shown. Binding calls can cover weak binding; strength is not graded here.
Molecular target: Recombinant human PD-1 fusion protein (human)
Experiment: ELISA: recombinant human PD-1 fusion protein coated at 0.5 ug/mL, antibody after storage in monkey serum, goat anti-human FAB-HRP, OD450

B1: humanized antibody anti-PD-1 (antibody, V domains shown)
VH: EVQLVESGGGLVKPGGSLRLSCAASGFTFSSYTMSWVRQAPGKGLEWVATISNGGSFTYYPDSMKGRFTISRDNSKNTLYLQMSSLRAEDTAVYYCARDSDYYGIFDYWGQGTTVTVSS
VL: DIVMTQSPLSLPVTPGEPASISCRSSKSLLYKDGKTYLNWYLQKPGQSPQLLIYLMSTRASGVPDRFSGSGSGTDFTLKISRVEAEDVGVYYCQQLVEDPFTFGQGTKLEIKR
notes: Human constant regions; also called humanized PD-1 antibody; hup01 (plasmids P3.1GS-hup01-HC / P3.1GS-hup01-LC)
- binding: binds

Source: patent US20190071501A1 (REYOUNG SUZHOU BIOLOGY SCIENCE AND TECHNOLOGY, published 2019)
